PubChem BioAssay AID504764, Drosophila RNAi Screening Center, 2011

- Assay: 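Knock-downs that raise or lower a Notch target reporter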 (primary screen)
- Cells: Drosophila Kc167 cells
- Reagent: long dsRNA against Drosophila genes
- Timing: about 5 days (4 days dsRNA, then 24 h after transfection)
- Conditions: transfection of constitutively active membrane-tethered Notch lacking the extracellular domain, read 24 h later
- Read-out: 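Firefly luciferase from an E(spl)m3 reporter with active Notch, plus control-promoter and uninduced reporter wells for normalisation; unnormalised counts, duplicate wells a and b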
- Direction: induced reporter light, run 1, well a and induced reporter light, run 1, well b: higher = more light from the Notch target reporter with active Notch; control promoter light, run 1, well a and control promoter light, run 1, well b: higher = more light from the viral control promoter (cell number, transfection, viability); uninduced reporter light, run 1, well a: higher = more light from the Notch target reporter without active Notch
- Call rule: 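Hit if the duplicate-averaged log2 ratio of induced to control-promoter light gives a plate-wise z beyond ±2, or induced to uninduced beyond ±1.8; weak-control or discordant-duplicate wells dropped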
- Meaning of the calls: active = modifier hit (raised or lowered Notch signal); inactive = not a hit
The deposit covers about 22,000 reagents; below is a random part of those with a known target gene and a result. Over the whole deposit, 403 (1.9%) were called active. 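Unnormalised raw counts per well; ratio z-scores behind the hit calls and whether each hit raises or lowers signal are not deposited.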 A plus sign joins genes that one reagent is predicted to hit. Reagent sequences are not shown. Not given: the amount of reagent.

no.	Gene	amplicon	induced reporter light, run 1, well a	induced reporter light, run 1, well b	control promoter light, run 1, well a	control promoter light, run 1, well b	uninduced reporter light, run 1, well a	activity call
1	NimC4 (GeneID 34824)	DRSC01945	1.25e5	1.30e5	1.62e5	1.61e5	11705	inactive
2	CG3610 (GeneID 41795)	DRSC15502	2.48e5	2.67e5	2.32e5	2.52e5	18590	inactive
3	CG43901 (GeneID 32024)	DRSC19397	1.37e5	1.31e5	3.11e5	2.26e5	10655	inactive
4	CG43901 (GeneID 32024)	DRSC19652	29150	32870	74135	55635	4440	inactive
5	spartin (GeneID 40582)	DRSC12187	1.61e5	1.80e5	2.09e5	1.90e5	11615	inactive
6	CG34202 (GeneID 5740498)	DRSC05907	1.44e5	1.27e5	2.06e5	2.02e5	11682	inactive
7	Pu (GeneID 37415)	DRSC04645	1.71e5	1.65e5	1.40e5	1.34e5	10165	inactive
8	CAH16 (GeneID 50101)	DRSC15371	1.21e5	1.05e5	1.87e5	1.78e5	10140	inactive
9	Oatp58Dc (GeneID 37545)	DRSC04363	1.39e5	1.70e5	1.32e5	1.32e5	9710	inactive
10	smash (GeneID 40583)	DRSC12139	1.22e5	1.20e5	82100	90620	9065	inactive
11	smash (GeneID 40583)	DRSC12239	24125	27550	29805	24730	2000	inactive
12	CG9014 (GeneID 34777)	DRSC01979	1.53e5	1.48e5	1.72e5	1.71e5	12875	inactive
13	CG9582 (GeneID 34230)	DRSC03267	1.16e5	1.45e5	73560	1.04e5	19550	inactive
14	CAH6 (GeneID 43701)	DRSC15505	1.22e5	1.18e5	1.82e5	1.90e5	11405	inactive
15	RhoGAPp190 (GeneID 32743)	DRSC20097	1.18e5	92155	88505	1.04e5	15038	inactive
16	RhoGAPp190 (GeneID 32743)	DRSC20099	1.30e5	96770	92255	46720	8665	inactive
17	CG13982 (GeneID 33895)	DRSC02314	1.76e5	2.04e5	1.77e5	1.76e5	9135	inactive
18	Tret1-2 (GeneID 36249)	DRSC07117	1.09e5	1.31e5	1.50e5	1.49e5	10410	inactive
19	roh (GeneID 246602)	DRSC04003	37195	41665	64275	63665	2028	inactive
20	CG15115 (GeneID 37192)	DRSC06537	1.85e5	1.37e5	2.30e5	2.57e5	13670	inactive
21	CG8197 (GeneID 35912)	DRSC07105	1.86e5	1.79e5	2.12e5	2.09e5	17530	inactive
22	CG4325 (GeneID 31167)	DRSC18516	9990	11465	11005	13535	4070	inactive
23	CG6055 (GeneID 34027)	DRSC02923	2.08e5	1.77e5	2.01e5	1.90e5	10630	inactive
24	glec (GeneID 42571)	DRSC16958	1.85e5	1.43e5	2.20e5	2.20e5	13965	inactive
25	CG15657 (GeneID 37408)	DRSC04248	50615	56820	49520	73775	3165	inactive
26	mwh (GeneID 38131)	DRSC08382	1.88e5	1.66e5	2.06e5	1.95e5	9795	inactive
27	kl-5 (retired record) (GeneID 3355175)	DRSC20707	1.04e5	1.03e5	1.02e5	1.19e5	10915	inactive
28	kl-5 (retired record) (GeneID 3355175)	DRSC20736	2.49e5	2.34e5	3.48e5	2.93e5	15125	inactive
29	kl-5 (retired record) (GeneID 3355175)	DRSC20773	2.17e5	1.72e5	3.34e5	2.63e5	14720	inactive
30	kl-5 (retired record) (GeneID 3355175)	DRSC21161	75030	75325	1.16e5	1.01e5	7795	inactive
31	p115 (GeneID 31698)	DRSC18813	1.55e5	1.72e5	3.02e5	3.03e5	9575	inactive
32	Strica (GeneID 35528)	DRSC04920	1.92e5	1.61e5	2.19e5	1.98e5	13855	inactive
33	Aasdh (GeneID 34175)	DRSC03467	1.70e5	1.73e5	90835	1.31e5	23325	inactive
34	Cyp309a2 (GeneID 33439)	DRSC00526	1.37e5	1.25e5	1.02e5	1.06e5	10025	inactive
35	CG2519 (GeneID 40666)	DRSC12312	1.33e5	1.19e5	1.15e5	91735	10935	inactive
36	ci (GeneID 43767)	DRSC17172	1.18e5	1.10e5	1.99e5	2.65e5	9220	inactive
37	CG42560 + CG42559	DRSC21873						active
38	mdlc (GeneID 42397)	DRSC15690	16915	16778	23835	26710	1335	inactive
39	Mmp1 (GeneID 37949)	DRSC04493	1.52e5	1.15e5	1.41e5	1.67e5	11595	inactive
40	CG5861 (GeneID 34965)	DRSC02907	1.53e5	1.65e5	2.31e5	2.27e5	14975	inactive
41	Tsp42Ej (GeneID 35620)	DRSC06113	1.83e5	1.89e5	1.73e5	1.56e5	13420	inactive
42	CG30379 (GeneID 246578)	DRSC05070	74790	89475	1.09e5	1.06e5	5280	inactive

The list goes on; the last 5 above are carried over.
no.	Gene	amplicon	induced reporter light, run 1, well a	induced reporter light, run 1, well b	control promoter light, run 1, well a	control promoter light, run 1, well b	uninduced reporter light, run 1, well a	activity call
38	mdlc (GeneID 42397)	DRSC15690	16915	16778	23835	26710	1335	inactive
39	Mmp1 (GeneID 37949)	DRSC04493	1.52e5	1.15e5	1.41e5	1.67e5	11595	inactive
40	CG5861 (GeneID 34965)	DRSC02907	1.53e5	1.65e5	2.31e5	2.27e5	14975	inactive
41	Tsp42Ej (GeneID 35620)	DRSC06113	1.83e5	1.89e5	1.73e5	1.56e5	13420	inactive
42	CG30379 (GeneID 246578)	DRSC05070	74790	89475	1.09e5	1.06e5	5280	inactive
43	CG12491 + CG34105	DRSC04008	1.41e5	1.75e5	2.67e5	2.44e5	10240	inactive
44	CG12491 + CG34105	DRSC04124	1.50e5	1.30e5	1.60e5	1.27e5	10400	inactive
45	CG11986 (GeneID 41083)	DRSC14461	95315	1.18e5	84380	70435	9010	inactive
46	Gp93 (GeneID 43354)	DRSC15827	1.65e5	2.26e5	2.08e5	2.19e5	13240	inactive
47	S2P (GeneID 36262)	DRSC07311	91485	1.09e5	1.30e5	1.13e5	10420	inactive
48	CG11550 (GeneID 43731)	DRSC14326	1.21e5	1.17e5	2.03e5	2.00e5	8205	inactive
49	Pdf (GeneID 43193)	DRSC16786	2.13e5	1.53e5	3.55e5	2.92e5	11895	inactive
50	CG33702 (GeneID 3771932)	DRSC08986	1.74e5	1.92e5	1.87e5	2.24e5	13595	inactive
51	beat-Ic (GeneID 34945)	DRSC01524	78550	60945	70725	74610	7935	inactive
52	beat-Ic (GeneID 34945)	DRSC03491	43385	46715	28790	28440	5585	inactive
53	Uros2 (GeneID 41908)	DRSC16505	2.39e5	2.45e5	2.59e5	2.50e5	20475	inactive
54	Prp3 (GeneID 40172)	DRSC10912	67570	73115	59750	64545	6060	inactive
55	Prm (GeneID 39002)	DRSC08941	1.82e5	2.33e5	1.75e5	2.37e5	15932	inactive
56	Prm (GeneID 39002)	DRSC08942	1.69e5	1.57e5	1.98e5	2.01e5	9785	inactive
57	Prm (GeneID 39002)	DRSC11255	1.03e5	1.10e5	70490	25650	10410	inactive
58	CG13230 (GeneID 50237)	DRSC06350	1.38e5	1.28e5	2.05e5	2.15e5	15480	inactive
59	CG18536 (GeneID 37093)	DRSC06763	50960	41155	43820	72105	6355	inactive
60	CG5541 (GeneID 2768877)	DRSC19946	1.54e5	1.58e5	2.09e5	1.73e5	11275	inactive
61	CG15800 (GeneID 37763)	DRSC04271	2.16e5	2.04e5	2.35e5	1.76e5	15490	inactive
62	5-HT2A (GeneID 40575)	DRSC11990	1.31e5	1.39e5	1.15e5	1.32e5	10192	inactive
63	CG10465 (GeneID 35488)	DRSC04848	1.88e5	1.49e5	1.71e5	1.72e5	13182	inactive
64	Eps-15 (GeneID 37961)	DRSC04288	55595	55930	56350	45145	4635	inactive
